Assay results published in PubChem BioAssay AID248 (DTP/NCI, 2004).
The list does not hold the whole screen: it is rich in T/C values a quarter to a half above the control, in often repeated tests (any T/C) and in doses without a T/C. Further doses and runs are listed elsewhere. T/C: endpoint of the treated group in % of that of the vehicle group. Some entries give survivors of the animals treated and no T/C: the source holds a T/C of zero for them, seemingly a mark for toxic or unscored doses. Some doses without a T/C left all or most animals alive at the check, yet need not have been tolerated: the source hardly ever lists a survival T/C far under the control, and the zero likely stands for such cases as well. Survivors were counted at the toxicity check, usually on the fifth day, unless a day is given; later deaths do not show. Schedule codes are those of the source, taken here to give the interval after Q, in days (D) or hours (H), and the number of doses after X. For survival time, the PubChem record calls one and a half times the control and up active, and a quarter to a half above the control has no call in these data; cut-offs in other NCI protocols can differ. Additions like (4×) say how often a value occurs here. Some T/C values carry the count of animals alive at the toxicity check (mostly the fifth day); without a count, all were alive then. Some doses were run more than once; the values are given in rising order. Some schedules carry Z or #; the key to these is not given.

Tested on: L1210 leukemia ip in BDF1 mice, survival T/C
Experiment: NCI In Vivo Anticancer Drug Screen. Data for tumor model L1210 Leukemia (intraperitoneal) in B6D2F1 (BDF1) mice
Conditions: T/C endpoint: median survival time, higher T/C = longer survival

COc1cccc2c1C(=O)c1c(O)c3c(c(O)c1C2=O)C[C@@](O)(C(=O)CO)C[C@@H]3OC1CC(N)C(O)C(C)O1 (stereo not given in full)
T/C (dose: 0.65 mg/kg/injection, schedule: Q03HX008 (ip), vehicle: water, evaluated on day 30): 120 % of control
T/C (dose: 0.65 mg/kg/injection, schedule: Q03HX008 (ip), vehicle: water, evaluated on day 32): 114 % of control
T/C (dose: 0.65 mg/kg/injection, schedule: Q03HX008 (ip), vehicle: water, evaluated on day 33): 120 % of control
T/C (dose: 0.65 mg/kg/injection, schedule: Q03HX008 (ip), vehicle: water, evaluated on day 35): 140 % of control
T/C (dose: 0.65 mg/kg/injection, schedule: Q03HX008 (ip), vehicle: water, evaluated on day 38): 133 % of control
T/C (dose: 0.65 mg/kg/injection, schedule: Q03HX008 (ip), vehicle: water, evaluated on day 46): 133 % of control
T/C (dose: 0.65 mg/kg/injection, schedule: Q03HX008 (ip), vehicle: water, evaluated on day 60): 95, 105, 131, 159 % of control
T/C (dose: 0.65 mg/kg/injection, schedule: Q03HX008 (ip), vehicle: water, evaluated on day 63): 117 % of control
T/C (dose: 0.65 mg/kg/injection, schedule: Q03HX016 (ip), vehicle: water, evaluated on day 5): 161 % of control
T/C (dose: 0.65 mg/kg/injection, schedule: Q03HX016 (ip), vehicle: water, evaluated on day 46): 161 % of control
T/C (dose: 0.65 mg/kg/injection, schedule: Q03HX016 (ip), vehicle: water, evaluated on day 60): 100 and 113 % of control
T/C (dose: 0.65 mg/kg/injection, schedule: Q03HX024 (ip), vehicle: water, evaluated on day 7): 107 and 160 % of control
T/C (dose: 0.65 mg/kg/injection, schedule: Q03HX024 (ip), vehicle: water, evaluated on day 32): 107 % of control
T/C (dose: 0.65 mg/kg/injection, schedule: Q03HX024 (ip), vehicle: water, evaluated on day 60): 95 and 113 % of control
T/C (dose: 0.65 mg/kg/injection, schedule: Q03HX024 (ip), vehicle: water, evaluated on day 63): 158 % of control
T/C (dose: 0.65 mg/kg/injection, schedule: Q04DX003 (ip), vehicle: water, evaluated on day 5): 86 and 137 % of control
T/C (dose: 0.65 mg/kg/injection, schedule: Q04DX003 (ip), vehicle: water, evaluated on day 60): 86 and 140 % of control
T/C (dose: 0.75 mg/kg/injection, schedule: Q03HX008 (ip), vehicle: water, evaluated on day 5): 107, 131, 133, 137, 138 % of control
T/C (dose: 0.75 mg/kg/injection, schedule: Q03HX008 (ip), vehicle: water, evaluated on day 7): 109 % of control
T/C (dose: 0.75 mg/kg/injection, schedule: Q03HX008 (ip), vehicle: water, evaluated on day 20): 131 % of control
T/C (dose: 0.75 mg/kg/injection, schedule: Q03HX008 (ip), vehicle: water, evaluated on day 29): 137 % of control
T/C (dose: 0.75 mg/kg/injection, schedule: Q03HX008 (ip), vehicle: water, evaluated on day 30): 107, 109, 138 % of control [6 of 8 alive]
T/C (dose: 0.75 mg/kg/injection, schedule: Q03HX008 (ip), vehicle: water, evaluated on day 60): 133 % of control
T/C (dose: 1.0 mg/kg/injection, schedule: Q01DX001 (ip), vehicle: saline, evaluated on day 5): 113, 116, 123, 130, 135, 138 % of control
T/C (dose: 1.0 mg/kg/injection, schedule: Q01DX001 (ip), vehicle: saline, evaluated on day 30): 123 % of control
T/C (dose: 1.0 mg/kg/injection, schedule: Q01DX001 (ip), vehicle: saline, evaluated on day 60): 116, 130, 134, 135 % of control
T/C (dose: 1.0 mg/kg/injection, schedule: Q01DX001 (ip), vehicle: water, evaluated on day 5): 114 % of control (2×)
T/C (dose: 1.0 mg/kg/injection, schedule: Q01DX001 (ip), vehicle: water, evaluated on day 21): 114 % of control
T/C (dose: 1.0 mg/kg/injection, schedule: Q01DX001 (ip), vehicle: water, evaluated on day 30): 116 % of control
T/C (dose: 1.0 mg/kg/injection, schedule: Q01DX009 (ip), vehicle: water): 131 % of control
T/C (dose: 1.0 mg/kg/injection, schedule: Q03HX008 (ip), vehicle: water, evaluated on day 5): 153 % of control
T/C (dose: 1.0 mg/kg/injection, schedule: Q03HX008 (ip), vehicle: water, evaluated on day 30): 141 % of control
T/C (dose: 1.0 mg/kg/injection, schedule: Q03HX008 (ip), vehicle: water, evaluated on day 46): 155 % of control
T/C (dose: 1.0 mg/kg/injection, schedule: Q03HX008 (ip), vehicle: water, evaluated on day 61): 136 % of control
T/C (dose: 1.0 mg/kg/injection, schedule: Q04DX003 (ip), vehicle: water, evaluated on day 5): 137 % of control
T/C (dose: 1.0 mg/kg/injection, schedule: Q04DX003 (ip), vehicle: water, evaluated on day 30): 137 % of control
T/C (dose: 1.0 mg/kg/injection, schedule: Q## X001 (ip), vehicle: saline): 138 % of control
T/C (dose: 1.0 mg/kg/injection, schedule: Q##DX001 (ip), vehicle: saline): 134 % of control
T/C (dose: 1.08 mg/kg/injection, schedule: Q01DX005 (ip), vehicle: water, evaluated on day 5): 120 % of control
T/C (dose: 1.08 mg/kg/injection, schedule: Q01DX005 (ip), vehicle: water, evaluated on day 35): 120 % of control
T/C (dose: 1.08 mg/kg/injection, schedule: Q01DX005 (ip), vehicle: water, evaluated on day 60): 120 and 121 % of control
T/C (dose: 1.08 mg/kg/injection, schedule: Q01DX005 (ip), vehicle: water, evaluated on day 90): 144 % of control
T/C (dose: 1.08 mg/kg/injection, schedule: Q03HX008 (ip), vehicle: none): 146 % of control
T/C (dose: 1.08 mg/kg/injection, schedule: Q03HX008 (ip), vehicle: water, evaluated on day 5): 61, 135, 141, 159 % of control
T/C (dose: 1.08 mg/kg/injection, schedule: Q03HX008 (ip), vehicle: water, evaluated on day 7): 107, 109, 114, 118 % of control
T/C (dose: 1.08 mg/kg/injection, schedule: Q03HX008 (ip), vehicle: water, evaluated on day 20): 114 % of control
T/C (dose: 1.08 mg/kg/injection, schedule: Q03HX008 (ip), vehicle: water, evaluated on day 30): 145 % of control
T/C (dose: 1.08 mg/kg/injection, schedule: Q03HX008 (ip), vehicle: water, evaluated on day 32): 107 % of control
T/C (dose: 1.08 mg/kg/injection, schedule: Q03HX008 (ip), vehicle: water, evaluated on day 33): 140 % of control
T/C (dose: 1.08 mg/kg/injection, schedule: Q03HX008 (ip), vehicle: water, evaluated on day 35): 160 % of control
T/C (dose: 1.08 mg/kg/injection, schedule: Q03HX008 (ip), vehicle: water, evaluated on day 38): 161 % of control
T/C (dose: 1.08 mg/kg/injection, schedule: Q03HX008 (ip), vehicle: water, evaluated on day 46): 133 % of control
T/C (dose: 1.08 mg/kg/injection, schedule: Q03HX008 (ip), vehicle: water, evaluated on day 60): 100, 118, 131 % of control
T/C (dose: 1.08 mg/kg/injection, schedule: Q03HX008 (ip), vehicle: water, evaluated on day 63): 105 % of control
survivor count (dose: 1.08 mg/kg/injection, schedule: Q03HX008 (ip), vehicle: water): 8 of 8
